“Also recorded” adds a separate entry of the source. For at least one compound, name, drawing or mass did not settle the structure. Some entries share one result that the patent states for a list of compounds.
Tests used:
[1] = test system: Klebsiella pneumoniae (ATCC BAA-2146 NDM-I positive); assay: Inactivation of K. pneumoniae by 300 ns electric pulses and/or antibiotics (CFU plating); format: cell-based; conditions: for synergy, K. pneumoniae: 30 kV/cm EPs + 2 μg/mL or 20 μg/mL (FIG. 9B legend)
From the text: (§1) Except for rifampicin, the five other antibiotics in these examples primarily target gram-positive bacteria and are largely ineffective or not used against gram-negative bacteria in a clinical setting.
(§2) A Blumlein pulsed generator consisting of two lines comprised of twelve 2000 pF capacitors connected by inductors produced 300 ns EPs with rise-times of 30 ns and fall-times of 35 ns at a repetition frequency of 1 Hz (12). The EPs were applied to a standard 2 mm gap electroporation cuvette (Dot Scientific R) filled with a solution containing the microorganisms. Used was a Luria broth of 0.5% salinity (5 grams of NaCl/Liter) for the solution to electrically match the resistance of the sample with the impedance of the pulse generator (11Ω) to prevent signal reflection. The voltage measurements were taken using a LeCroy PPE 20 kV high voltage probe with a 1000:1 attenuation recorded by a TeleDyne LeCroy® Waverunner 6 Zi Oscilloscope with a bandwidth of 4 GHZ.
The gram-negative strains included a carbapenem-resistant Escherichia coli (ATCC® BA-2452TM, New Delhi metallo-beta-lactamase NDM-1 positive.), Klebsiella pneumoniae (ATCC® BAA-2146TM NDM-I positive), and a gentamicin, streptomycin and sulfonamide resistant Pseudomonas aeruginosa (BEI Resources NR-31040). Assessed was the gram-positive strain of methicillin resistant Staphylococcus aureus (USA300-0114 strain), which is also resistant to erythromycin and tetracycline. Samples were cultured in Luria broth (LB Broth Lennox, powder microbial growth medium, SIGMA-ALDRICH®) by taking 25 mL of broth in a 50 mL sterile conical tube and incubating in a shaker for 16 h at 37° C. Samples were diluted 50% by adding 25 mL media to the incubated sample as we plated controls for each experiment and condition.
Samples were treated in 2 mm gap cuvettes containing 365 μL of sample between the electrodes, with bio-grade mineral oil added on top of the electrode plates to prevent arcing.
To establish a common baseline for comparing different NSEP parameters, we fixed the energy density U delivered to the cuvettes according to Formula (1) (above). For 300 ns EPs, 500 EPs at 20 kV/cm and 222 EPs at 30 kV/cm delivered the same energy to the sample.
Tissue culture Petri dishes from VWR R (15 cm diameter, 10 mm height) were utilized for plating. Each plate was covered with 15 mL of Luria broth (Agar, microbiology tested powder, SIGMA-ALDRICH®), which was prepared by adding 20 g of LB Lennox (SIGMA-ALDRICH) and 15 g/L of agar to water prior to being autoclaved. The salinity of the agar was the same as the LB (0.5% NaCl) to minimize additional environmental stressors on the bacteria.
Removed was 20 μL from each cuvette and added to 180 μL of PBS in a 96-well dish in triplicate. Each well was then diluted by a ratio of 10:1 five additional times by taking 20 μL of the diluted sample into subsequent wells using multi-channel pipettes (using fresh tips for each dilution). Plated were the six dilutions of each sample two times each by adding 4 μL from each well onto the Petri dish using a multi-channel pipette, which allowed the plating of all three replicates on the same plate to achieve n=6. These plates were then cultured overnight in an incubator at 37° C., and counted the next day.

[2] = test system: methicillin resistant Staphylococcus aureus (USA300-0114 strain); assay: Inactivation of MRSA by 300 ns electric pulses and/or antibiotics (CFU plating); format: cell-based
From the text: as §1
as §2, with “Used was a Luria broth of 0.5% salinity (5 grams of NaCl/Liter) for the solution to electrically match the resistance of the sample with the impedance of the pulse generator (11Ω) to prevent signal reflection.” left out
(§3) The gram-negative strains included a carbapenem-resistant Escherichia coli (ATCC® BA-2452TM, New Delhi metallo-beta-lactamase NDM-1 positive.), Klebsiella pneumoniae (ATCC® BAA-2146TM NDM-I positive), and a gentamicin, streptomycin and sulfonamide resistant Pseudomonas aeruginosa (BEI Resources NR-31040). Assessed was the gram-positive strain of methicillin resistant Staphylococcus aureus (USA300-0114 strain), which is also resistant to erythromycin and tetracycline. […]

[3] = test system: Stapphylococcus aureus (gram positive bacterium number 25923); assay: Inactivation of S. aureus by 300 ns electric pulses combined with antibiotic (CFU plating); format: cell-based, Staphylococcus aureus; conditions: same energy, different electric fields and number of pulses, different concentrations; vs antibiotic alone
Procedure: (§4) Equipment. Used was a capacitor based Blumlein pulse generator with a spark gap switch to produce trapezoidal EPs of 300 ns duration at the peak with rise and fall times close to 50 ns. Multiple pulses were delivered at a frequency of 1 Hz.
(§5) The samples were treated in a standard electroporation cuvette (Dot Scientific) whose resistance must match the pulse generator's impedance to prevent pulse reflection. Utilizing Luria broth, containing 0.5% NaCl, in a cuvette with gap distances of 1 mm and 2 mm yielded the best electrical match (no reflections in the measured signal). Used were 2 mm cuvettes to ensure consistency between tests, and the applied voltage was measured across the cuvette using a LeCroy PPE 20 kV high voltage probe with a 1000:1 attenuation feeding into a TeleDyne LeCroy Waverunner 6 Zi Oscilloscope capable of measuring signals up to 4 GHz. […]
(§6) Sample Preparation. These experiments assessed Stapphylococcus aureus (gram positive bacterium number 25923) from ATCC and Esherichia coli (gram negative bacterium number 25922) inoculated in luria broth (LB Broth Lennox, powder microbial growth medium. SIGMA-ALDRICH) by taking 8 mL of broth in a 50 mL sterile conical tube and incubating in a shaker for 20 h at 37° C. […]

[4] = test system: gentamicin, streptomycin and sulfonamide resistant Pseudomonas aeruginosa (BEI Resources NR-31040); assay: Inactivation of P. aeruginosa by 300 ns electric pulses and/or antibiotics (CFU plating); format: cell-based; conditions: 20 kV/cm NSEPs + 2 μg/mL or 20 μg/mL
From the text: as §1
as §2, with “Used was a Luria broth of 0.5% salinity (5 grams of NaCl/Liter) for the solution to electrically match the resistance of the sample with the impedance of the pulse generator (11Ω) to prevent signal reflection.” left out
as §3

[5] = test system: Esherichia coli (gram negative bacterium number 25922); assay: Inactivation of E. coli by 300 ns electric pulses combined with antibiotic (CFU plating); format: cell-based, Escherichia coli; conditions: same energy, different electric fields and number of pulses, different concentrations; vs antibiotic alone
Procedure: as §4
as §5, with “Utilizing Luria broth, containing 0.5% NaCl, in a cuvette with gap distances of 1 mm and 2 mm yielded the best electrical match (no reflections in the measured signal).” left out
as §6, with “C. The sample was then diluted with fresh Luria broth until attaining an optical density of 0.25 for 100 μL on a photospectrometer (Molecular Devices) for a wavelength of 562 nm as measured in a 96-well plate.” for “C.”

[6] = test system: carbapenem-resistant Escherichia coli (ATCC BA-2452, NDM-1 positive); assay: Inactivation of carbapenem-resistant E. coli by 300 ns electric pulses and/or antibiotics (CFU plating); format: cell-based; conditions: drug alone, 2 μg/mL or 20 μg/mL, no EPs
From the text: as §1
as §2, with “Used was a Luria broth of 0.5% salinity (5 grams of NaCl/Liter) for the solution to electrically match the resistance of the sample with the impedance of the pulse generator (11Ω) to prevent signal reflection.” left out
as §3

C/C(=C\C(=O)OCCCCCCCCC(=O)O)C[C@@H]1OC[C@H](C[C@@H]2O[C@H]2[C@@H](C)[C@H](C)O)[C@@H](O)[C@H]1O [mupirocin]
synergy, K. pneumoniae [1]: ≥ 1 log
additional inactivation compared to NSEPs alone, K. pneumoniae ([1]; 30 kV/cm NSEPs + 20 μg/mL): over 1 log
log reduction of K. pneumoniae / improvement over the NSEPs ([1]; 30 kV/cm NSEPs + 20 μg/mL): over 4 log

CO[C@H]1/C=C/O[C@@]2(C)Oc3c(C)c(O)c4c(O)c(c(/C=N/N5CCN(C)CC5)c(O)c4c3C2=O)NC(=O)/C(C)=C\C=C\[C@H](C)[C@H](O)[C@@H](C)[C@@H](O)[C@@H](C)[C@H](OC(C)=O)[C@@H]1C [rifampicin]
MRSA 300 inactivation compared to using only the NSEPs ([2]; 2 μg/mL + 20 kV/cm NSEPs): improvement
MRSA 300 inactivation compared to using only the NSEPs ([2]; 20 μg/mL + 30 kV/cm NSEPs): improvement
effect of combining trains of 300 ns EPs with antibiotic on amount of viable S. aureus [3]: synergistically reduced
additional inactivation of P. aeruginosa [4]: no additional inactivation
synergy, K. pneumoniae [1]: ≥ 1 log
log reduction of K. pneumoniae / improvement over the NSEPs ([1]; 30 kV/cm NSEPs + 20 μg/mL): did not induce a statistically significant improvement
effect of combining trains of 300 ns EPs with antibiotic on amount of viable E. coli [5]: enhanced the effectiveness; also recorded: synergistically reduced
change in E. coli population [6]: induced changes
